Out of some 1,400 compounds screened, fewer than 10 were called active.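 How the source made its calls: active means fluorescence-lowering compounds whose fitted half-maximal concentration is at or below ten times the highest valid dose tested; inconclusive means flat curve at 30 to 70% inhibition, or poor fit; inactive means the rest.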 The list shows a part of the results.

Amino acid sequences for entries named in this document (tags omitted). A change or cut given only in a name is not applied to a line headed by its entry.
UniProt O15379: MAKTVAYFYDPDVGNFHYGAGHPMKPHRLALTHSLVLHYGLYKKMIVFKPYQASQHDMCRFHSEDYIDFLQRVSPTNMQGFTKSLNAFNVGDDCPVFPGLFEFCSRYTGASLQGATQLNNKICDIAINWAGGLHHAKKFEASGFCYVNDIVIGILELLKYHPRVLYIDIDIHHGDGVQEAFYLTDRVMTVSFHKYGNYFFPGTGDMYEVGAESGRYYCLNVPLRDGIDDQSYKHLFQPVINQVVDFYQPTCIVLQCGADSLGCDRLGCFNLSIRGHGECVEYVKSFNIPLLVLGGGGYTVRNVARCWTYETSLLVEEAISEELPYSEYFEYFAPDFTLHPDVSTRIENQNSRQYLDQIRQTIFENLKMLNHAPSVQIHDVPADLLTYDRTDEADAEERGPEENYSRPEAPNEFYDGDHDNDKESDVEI

The text below walks through data of PubChem BioAssay AID485318 (Broad Institute, 2010).

For this test, the target named is Histone deacetylase 3 (Homo sapiens) (UniProt O15379). The experiment in a line: inhibition of human HDAC3 enzymatic activity – biochemical, fluorescence, cherry-picked samples, counter-screen for JMJD2C/GASC1 demethylase inhibitor project, dose response (AID 485318).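 Further: enzyme preincubated with compound before substrate and trypsin were added; 0% = neutral control wells and -100% = SAHA positive control wells.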 The note with it: recombinant HDAC3, fluorogenic peptide/trypsin coupled; at 12 µM (top of the series).
As for `CC1C(=O)N(Cc2ccc([N+](=O)[O-])cc2)c2ccccc2N1C(=O)C1CC1` (centres undefined), the activity change, negative = inhibition was inactive: 0.00355%. As for `Cc1nnc(SCc2nc3ccccc3[nH]2)s1`, the figure is inactive: -0.52%; as for `O=c1nc(SCc2cccc(C(F)(F)F)c2)nc2ccccn12`, inactive: 0.315%; as for `Nc1nn2c(-c3ccccc3)cc(=O)[nH]c2c1N=Nc1ccc(O)cc1`, inactive: -0.625%. As for `CC1=C(C#N)C(Nc2ccc(C)cn2)(C(F)(F)F)C(=O)N1` (centres undefined), the figure is inactive: 0.146%. As for `OCc1ccc(OCCCOc2cccc3cccnc23)cc1`, the figure is inactive: -0.0166%. Take `O=C(NCC(c1ccco1)N1CCCCC1)c1ccc(OCc2ccccc2)cc1` (centres undefined): the activity change, negative = inhibition was inactive: -0.0798%.

In the case of `c1ccc(-c2nc(-c3ccco3)cs2)nc1`, the activity change, negative = inhibition was inactive: -0.223%. As for `Oc1cc2c(cc1O)C(c1ccccc1)CNCC2` (centres undefined), the figure is inactive: 0.288%; as for `Fc1cccc(F)c1/C=N/N1CCOCC1`, inactive: 0.343%; as for `CCOC(=O)N1CCN(c2ccc(F)cc2[N+](=O)[O-])CC1`, inactive: 0.606%. For `O=C(/C=C\c1ccc2c(c1)OCO2)NC1(C(=O)Nc2ccc3c(c2)OCO3)CCCCC1` the value was inactive: 0.815%; for `CC(C)CC(=O)Nc1ccccc1N1CCOCC1`, inactive: -0.676%.

In the case of `CCC(Sc1nc(N)c(NC(=O)c2ccc(Br)o2)c(=O)[nH]1)C(=O)O` (centres undefined), the activity change, negative = inhibition was inactive: 0.305%. For the compound `O=C(CSc1nc(-c2ccccc2)cc(=O)[nH]1)NCc1ccc2c(c1)OCO2`, the activity change, negative = inhibition was inactive: 1.31%. As for `CCC(=O)Nc1ccc(NC(=O)CSc2nnnn2C(C)C)cc1`, the figure is inactive: 0.553%; as for `COc1ccc(CCN=C(NS(=O)(=O)c2ccc(Cl)cc2)c2ccccc2)cc1`, inactive: 0.401%. As for `CCOC(=O)c1ccc(N2C(=O)C(C)=C(C)C2=O)cc1`, the activity change, negative = inhibition is inactive: 0.048%. As for `Cc1cccc(-c2noc(CCC(=O)NC3CCCC3)n2)c1`, the figure is inactive: 0.292%.

Turning to `C#CCOCCOCCOCCNc1nc(N2CCN(C(=O)CCCCCCCCCCNC(=O)[C@H](CO)n3cc(CCCSC)nn3)CC2)nc(N2CCN(C(=O)CCCCCCCCCCNC(=O)[C@H](CCCN=C(N)N)n3cc(C[C@@H](C)CC)nn3)CC2)n1`, the activity change, negative = inhibition was inactive: -0.115%. For `Cc1cc(C(=O)OCc2nnc(-c3ccccc3)o2)c(C)n1-c1ccccc1` the value was inactive: -0.284%. On to `O=C(Oc1cccc2cccnc12)c1cccc(N2C(=O)C3C4CCC(C4)C3C2=O)c1` (centres undefined), for which the activity change, negative = inhibition was inactive: -0.368%. For `CCc1ccc(-c2nc(CN3CCC(C(=O)NCc4ccc(F)cc4)CC3)c(C)o2)cc1` the value was inactive: -0.3%. For `Cc1ccc(S(=O)(=O)N2[C@@H](c3ccc(Br)cc3)C(C(=O)O)=C[C@H]2CC2CCCC2)cc1` the value was inactive: 0.0703%.
